Results published in PubChem BioAssay AID662 (National Center for Advancing Translational Sciences (NCATS), 2007).
Where “and” joins values, the source holds several entries; their conditions need not be identical. Equal values may be shown once. This is one part of the list. Shown are side measurements of this screen, not its main read-out; they come without a call. The list favours compounds with an active or inconclusive main result. Words in brackets tell the shape of the fitted curve; partial curves, single points and poor fits give uncertain potencies.

experiment: Cell signaling CRE-BLA (Fsk stim); conditions: CHO CRE-bla reporter (cAMP response element driving beta-lactamase), forskolin EC10, beta-lactamase ratio; measured here: 460 nm blue channel
Method in brief: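 CRE-bla CHO cells stimulated with EC10 NKH 477 (water-soluble forskolin) and compound titrations, 3 h at 37C; beta-lactamase read with CCF4 after 2 h at room temperature. Activity from 460/530 nm emission ratio, AC50 values for positive or negative modulation.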

| Structure (SMILES) | AC50 |
| --- | --- |
| COCCNC(=O)CSc1nc2cc(OC)c(OC)cc2c(=O)n1Cc1ccco1 | 10 µM [rising, partial curve] |
| Cc1cc(C)c(C#N)c(N2CCSCC2)n1 | 12.6 µM [rising, single point] |
| COc1cc(CC(=O)Nc2sccc2C(N)=O)cc(OC)c1OC | 12.6 µM [rising, single point] |
| COCCCNS(=O)(=O)c1ccccc1 | 0.00316 µM [falling, full curve, poor fit] |
| O=c1c(-c2cc(F)cc(F)c2)nc2cncnc2n1C1CC1 | 12.6 µM [rising, partial curve] |
| CC1CC(C)CN(C(=O)COc2ccc(-c3nnco3)cc2)C1 (configuration not stated) | 0.0794 µM [falling, full curve] |
| COc1ccc(CCNC[C@H](O)c2ccc(O)cc2)cc1OC | 25.1 µM [falling, partial curve] |
| Cc1cc(NCCOCCO)n2ncc(-c3ccc(Cl)cc3)c2n1 | 5.01 µM [rising, partial curve] |
| CC(C)[C@H](CO)Nc1nc(Nc2cccc(Cl)c2)c2ncn(C(C)C)c2n1 | 10 µM [falling, full curve] and 15.8 µM [falling, partial curve, poor fit] |
| CC(C)CCNC(=O)CCS(=O)(=O)c1cccc2nonc12 | 15.8 µM [falling, partial curve] |
| CC(C)=CCC/C(C)=C/COc1c2ccoc2cc2oc(=O)ccc12 | 12.6 µM [rising, partial curve] |
| O=c1c(-c2ccc(F)cc2)nc2cnc(Oc3cccc(Cl)c3)nc2n1C[C@H]1CCCO1 | 12.6 µM [rising, partial curve] |
| O=C(Nc1ccc2nc(C3CC3)n(Cc3ccc(F)cc3)c(=O)c2c1)c1ccco1 | 0.2 µM [falling, full curve] |
| C[C@@H]1C(=O)O[C@H]2[C@@H](O)[C@@]34[C@H]5C[C@H](C(C)(C)C)[C@@]36[C@H](OC(=O)[C@@H]6O)O[C@@]4(C(=O)O5)[C@@]12O | 25.1 µM [falling, partial curve, poor fit] |
| COc1cc(Cc2cnc(N)nc2N)cc(OC)c1OC | 2.51 µM [falling, full curve, poor fit] |
| CCc1ccc(NC2CC(=O)N(c3ccc(OC)cc3OC)C2=O)cc1 (configuration not stated) | 0.631 µM [rising, single point] |
| Cc1ccc2cc3c(NC(=O)C(C)C)nn(C)c3nc2c1 | 12.6 µM [rising, partial curve] |
| CC(=O)N1CCC2(CC1)CCN(c1cccc(-c3ccccc3)c1)CC2 | 12.6 µM [rising, partial curve] |
| FC(F)(F)c1cnc2c(c1)Nc1ccccc1S2 | 3.16 µM [falling, partial curve] |
| COc1ccc(Cl)cc1NS(=O)(=O)c1cc(Cl)ccc1OC | 0.794 µM [falling, full curve] |
| CCc1ccc(CNc2ccc3c(c2)ncn3C)cc1 | 12.6 µM [falling, partial curve] |
| CCc1nc(Nc2ccncc2)c2oc3ccccc3c2n1 | 10 µM [rising, partial curve] |
| CCOC(=O)c1[nH]c(C)c(C(=O)OCc2c(C)noc2C)c1C | 1.58 µM [rising, full curve] |

Single values from the entries so far.
AC50 with `O=c1c(-c2ccc(F)cc2)nc2cnc(Oc3cccc(Cl)c3)nc2n1C[C@H]1CCCO1` is entered as 12.6 µM [rising, partial curve]
AC50 with `CC(=O)N1CCC2(CC1)CCN(c1cccc(-c3ccccc3)c1)CC2` is entered as 12.6 µM [rising, partial curve]
AC50 with `COCCCNS(=O)(=O)c1ccccc1` is entered as 0.00316 µM [falling, full curve, poor fit]

Continued:

| Structure (SMILES) | AC50 |
| --- | --- |
| O=C(NC1CCCCCC1)C1c2ccccc2C(=O)N1CCCN1CCOCC1 (configuration not stated) | 25.1 µM [rising, single point] |
| COc1ccc(OC)c(C2C(C(C)=O)=C(O)C(=O)N2c2ccc(F)cc2)c1 (configuration not stated) | 1 µM [falling, single point] |
| CCSC(=Nc1ccccc1)C1=C(O)COC1=O | 6.31 µM [falling, partial curve] |
| Cn1c(=O)[nH]c(=O)c2c1nc(CN(Cc1ccccc1)Cc1ccccc1)n2CCN1CCOCC1 | 2.51 µM [rising, single point] |
| CCOc1ccccc1N(CC)C(=O)Cn1ncc2c(=O)oc3ccccc3c21 | 5.01 µM [rising, partial curve] |
| CN(C)c1ncc2nc(CCc3ccccc3)c(=O)n(Cc3cccs3)c2n1 | 12.6 µM [rising, partial curve] |
| Cc1cccc(-c2nnc3sc(-c4ccccc4C)nn23)c1 | 25.1 µM [falling, single point] |
| CCN(CC)CCN1C(=O)C(=O)/C(=C(/O)c2ccc(OC)c(OC)c2)C1c1ccccn1 (configuration not stated) | 5.01 µM [rising, full curve] |
| COc1ccc(Cn2nnnc2CN2CCC(c3nc4ccccc4s3)CC2)cc1 | 12.6 µM [rising, partial curve] |
| N#CC1=C(N)Oc2n[nH]c(-c3cccs3)c2C1c1ccco1 (configuration not stated) | 3.98 µM [falling, partial curve] |
| COc1cc(-c2nnc(CSc3nnc4nc(C)cc(C)n34)o2)cc(OC)c1OC | 12.6 µM [rising, single point] |
| Fc1ccc(Cn2nnnc2CN2CCc3ccccc3C2)cc1 | 2.51 µM [falling, single point] |
| COc1ccc(CNC(=O)COC(=O)c2n[nH]c3ccccc23)cc1OC | 12.6 µM [rising, partial curve] |
| CN(C)C(=O)c1ccc(-c2nc(Nc3ccncc3)c3ccccc3n2)cc1 | 10 µM [rising, partial curve] |
| CCC(CC)C(=O)Nc1cccc(C(=O)N2CCCCCC2)c1 | 0.00398 µM [falling, full curve, poor fit] |
| O=C(c1cc2c(s1)-c1ccccc1OC2)N1CCCC1 | 20 µM [falling, single point] |
| COC(=O)[C@@]1(Cc2ccc(OC)cc2)[C@H]2c3cc(C(=O)N(C)C)n(Cc4ccc(O)c(OC)c4)c3C[C@H]2CN1C(=O)c1ccccc1 | 1.58 µM [rising, partial curve] |
| CC(=O)Nc1ccc(NC(=O)Cn2cnc3c(cnn3C(C)(C)C)c2=O)cc1 | 15.8 µM [rising, single point] |
| CC(C)(C)c1csc(NC(=O)CSc2nc3ccccc3c(=O)[nH]2)n1 | 12.6 µM [rising, partial curve, poor fit] |
| CN(C)CCC(=O)c1ccc2c(c1)OCO2 | 3.98 µM [falling, partial curve] |
| CCCN1C(=O)c2ccccc2NC1c1ccc(OC)cc1OC (configuration not stated) | 5.01 µM [rising, single point] |
| CCN1CCN(c2c(Cl)cccc2NC(=O)c2ccc3c(c2)OCCO3)CC1 | 3.16 µM [rising, full curve, poor fit] |
| CCC[C@H]1C(=O)N2C(N(C)C)=Nc3ccc(C)cc3N2C1=O | 3.98 µM [rising, partial curve] |

| Structure (SMILES) | AC50 |
| --- | --- |
| N#CC1=C(N)Oc2nc(-c3ccccc3)[nH]c2C1c1cccnc1 (configuration not stated) | 6.31 µM [rising, partial curve] |
| COCCn1cc(C(=O)N2CCCC(C)C2)c2c3ccccc3n(C)c2c1=O (configuration not stated) | 12.6 µM [rising, single point] |
| N=c1c(C(=O)NCc2ccco2)cc2c(=O)n3ccccc3nc2n1CCc1ccccc1 | 10 µM [rising, partial curve] |
| CCOC(=O)c1c(C)[nH]c(C(=O)OC)c1CCC(=O)OC | 10 µM [rising, partial curve] |
| CCCC[C@H]1C(=O)N(c2ccccc2)N(c2ccc(O)cc2)C1=O | 10 µM [falling, single point] |
| Cc1noc(C)c1C(=O)Nc1ccccc1-c1ccccc1 | 1.58 µM [falling, full curve] |
| COc1cccc(C2C=C(c3ccc(OC)cc3OC)Nc3nnnn32)c1 (configuration not stated) | 25.1 µM [rising, partial curve] |
| COc1cc(OC)c(-c2nn3c(-c4cccnc4)nnc3s2)cc1OC | 3.16 µM [rising, partial curve] |
| Cc1c(NC(=O)CCc2ccc(S(=O)(=O)N3CCOCC3)cc2)c(=O)n(-c2ccccc2)n1C | 5.01 µM [falling, single point] |
| CCOC(=O)CSC(CC)C(=O)Nc1nnc(C(C)C)s1 (configuration not stated) | 10 µM [rising, partial curve] |
| COc1ccc(-c2nc3cnc(Nc4cccc(OC)c4)nc3n(CCC#N)c2=O)cc1 | 12.6 µM [rising, partial curve] |
| O=c1[nH]c(SCc2ccccc2Cl)nc2c1cnn2-c1ccccc1 | 0.501 µM [rising, full curve] |
| COc1ccc(CN2C(=O)c3cccnc3C2Nc2ccc(OC)c(Cl)c2)cc1 (configuration not stated) | 0.00316 µM [rising, full curve, poor fit] |
| O=C(CSc1nc2cc(Cl)ccc2s1)N1CCN(C(=O)c2ccco2)CC1 | 10 µM [rising, partial curve] |
| COC(=O)c1cc(C(=O)OC)n(Cc2ccc(F)cc2)n1 | 0.794 µM [rising, single point] |
| CC(NC(=O)c1cc(-c2ccc(Br)cc2)on1)c1ccccc1 (configuration not stated) | 0.00794 µM [falling, single point] |
| O=C(CNC(=O)c1ccc(Br)o1)Nc1cccc(-c2cnc3ccccc3n2)c1 | 3.16 µM [rising, full curve] |
| O=C(Nc1ccccc1C(=O)NCc1cccnc1)c1ccco1 | 10 µM [rising, partial curve] |
| CN(C)c1cc2c(Nc3ccc4c(cnn4Cc4ccccc4)c3)ncnc2cn1 | 25.1 µM [rising, single point] |
| COC(=O)Cn1c(=NC(=O)CSCC(=O)Nc2cc(C)on2)sc2ccccc21 | 12.6 µM [rising, partial curve] |
| N=C1C(c2ccc(Br)cc2)=C(O)C2CCc3ccccc3N12 (configuration not stated) | 0.251 µM [falling, partial curve, poor fit] |
